Reference: patent publication US20100069244A1, “Pyridine Compounds for Combating Pests” (priority 2006, published 2010)
Some of these results come from one statement about several compounds together. For at least one compound, name, drawing or mass did not settle the structure.

Columns and labels:
Assay type in all cases: in vivo
[1] = test system: Cotton Aphid (Aphis gossypii); test: Activity against cotton aphid, cotyledon dip; conditions: 300 ppm; cotton cotyledons dipped; mortality counts after 5 days
[2] = test system: Cowpea Aphid (Aphis craccivora); test: Activity against cowpea aphid, spray on potted cowpea plants; conditions: 300 ppm; sprayed cowpea plants; population reduction recorded after 24, 72 and 120 hours
[3] = test system: Silverleaf Whitefly (Bemisia argentifolii); test: Activity against silverleaf whitefly, cotton cotyledon dip; conditions: 300 ppm; whitefly adults on dipped cotton cotyledons; 3 days after treatment
[4] = test system: Green Peach Aphid (Myzus persicae); test: Green peach aphid, pepper leaf dip; conditions: 300 ppm; pepper leaves dipped; after 5 days

| Structure (SMILES) | mortality in comparison with untreated controls [1] | mortality in comparison with untreated controls [2] | mortality in comparison with untreated controls [3] | mortality in comparison with untreated controls [4] |
| --- | --- | --- | --- | --- |
| O=[N+]([O-])c1cccc(CN2CC[C@H]2COc2cnc(Cl)c(Cl)c2)c1 [Ia-15] | over 90% | over 90% | over 75% | over 90% |
| FC(F)(F)c1ccccc1CN1CC[C@H]1COc1cnc(Cl)c(Cl)c1 [Ia-57] | over 90% | over 90% | over 75% | over 90% |
| Clc1ccc(/C=C/CN2CC[C@H]2COc2cnc(Cl)c(Cl)c2)cc1 [Ia-224] |  | over 90% | over 75% | over 90% |
| CN(C)c1ccc(CN2CC[C@H]2COc2cnc(Cl)c(Cl)c2)cc1 [Ia-40] | over 90% | over 90% | over 75% | over 90% |
| Clc1ccc(CN2CC[C@H]2COc2cnc(Cl)c(Cl)c2)c(Cl)c1 [Ia-79] | over 90% | over 90% | over 75% | over 90% |
| CC(C)C(=Cc1ccco1)CN1CCC1COc1ccc(Cl)nc1 (stereo not shown) [Ia-184] | over 90% | over 90% | over 75% | over 90% |
| CSc1ccc(CN2CC[C@H]2COc2cnc(Cl)c(Cl)c2)cc1 [Ia-35] | over 90% | over 90% | over 75% | over 90% |
| CC(C)(C)c1ccc(CN2CC[C@H]2COc2cnc(Cl)c(Cl)c2)cc1 [Ia-58] | over 90% | over 90% | over 75% | over 90% |
| Clc1cc(OC[C@@H]2CCN2Cc2ccc3ccccc3c2)cnc1Cl [Ia-60] | over 90% | over 90% | over 75% | over 90% |
| Cc1cccc(CN2CC[C@H]2COc2cnc(Cl)c(Cl)c2)c1 [Ia-82] | over 90% | over 90% | over 75% | over 90% |
| Fc1ccc(CN2CC[C@H]2COc2ccc(Cl)nc2)cc1Br [Ia-104] | over 90% | over 90% | over 75% | over 90% |
| CC(C)CC(CN1CC[C@H]1COc1ccc(Cl)nc1)c1ccc(F)cc1 (stereo partly shown) [Ia-178] | over 90% | over 90% | over 75% | over 90% |
| COc1cccc(CN2CC[C@H]2COc2cnc(Cl)c(Cl)c2)c1 [Ia-86] | over 90% | over 90% | over 75% | over 90% |
| Clc1ccccc1CN1CC[C@H]1COc1cnc(Cl)c(Cl)c1 [Ia-91] | over 90% | over 90% | over 75% | over 90% |
| Cc1ccccc1CN1CC[C@H]1COc1cnc(Cl)c(Cl)c1 [Ia-41] | over 90% | over 90% | over 75% | over 90% |
| Oc1ccc(CN2CC[C@H]2COc2cnc(Cl)c(Cl)c2)cc1 [Ia-61] | over 90% | over 90% | over 75% | over 90% |
| CC(C)(C)CN1CC[C@H]1COc1cncc(Cl)c1 [Ia-157] | over 90% | over 90% | over 75% | over 90% |
| CC(C)(C)c1ccc(CN2CC[C@H]2COc2ccc(Cl)nc2)cc1 [Ia-47] | over 90% | over 90% | over 75% | over 90% |
| FC(F)(F)c1cccc(CN2CC[C@H]2COc2cnc(Cl)c(Cl)c2)c1 [Ia-83] | over 90% | over 90% | over 75% | over 90% |
| Cc1cc(C(C)(C)C)ccc1CN1CC[C@H]1COc1cnc(Cl)c(Cl)c1 [Ia-37] | over 90% | over 90% | over 75% | over 90% |
| Clc1ccc(OCC2CCN2CCCCc2ccc3c(c2)OCO3)cn1 (stereo not shown) [Ia-177] | over 90% |  | over 75% | over 90% |
| Oc1cccc(CN2CC[C@H]2COc2ccc(Cl)nc2)c1 [Ia-16] | over 90% |  | over 75% | over 90% |
| Oc1ccc(CN2CC[C@H]2COc2ccc(Cl)nc2)cc1 [Ia-93] | over 90% |  | over 75% | over 90% |
| CC(C)(C)c1cc(CN2CC[C@H]2COc2cncc(Cl)c2)cc(C(C)(C)C)c1O [Ia-94] | over 90% |  | over 75% | over 90% |
| Clc1ccc(OC[C@@H]2CCN2Cc2ccccc2OCc2ccccc2)cn1 [Ia-17] | over 90% |  | over 75% | over 90% |
| Clc1ccc(CN2CC[C@H]2COc2cnc(Cl)c(Cl)c2)cc1 [Ia-80] | over 90% | over 90% | over 75% |  |
| CC(=O)Nc1ccc(CN2CC[C@H]2COc2ccc(Cl)nc2)cc1 [Ia-21] | over 90% |  | over 75% | over 90% |
| Clc1ccc(OCC2CCN2CC=Cc2cc(Br)cs2)cn1 (stereo not shown) [Ia-182] | over 90% |  | over 75% | over 90% |
| CC(=O)Nc1ccc(CN2CC[C@H]2COc2cnc(Cl)c(Cl)c2)cc1 [Ia-39] | over 90% |  | over 75% | over 90% |
